Results from the supplement of paper PMC10849652.
Some of the results follow.

By UniProt entry, the sequences of proteins in these tests, tags left out. Where a name states a change or a piece, a line headed by the entry shows the natural chain unless it says otherwise.
UniProt Q96E22: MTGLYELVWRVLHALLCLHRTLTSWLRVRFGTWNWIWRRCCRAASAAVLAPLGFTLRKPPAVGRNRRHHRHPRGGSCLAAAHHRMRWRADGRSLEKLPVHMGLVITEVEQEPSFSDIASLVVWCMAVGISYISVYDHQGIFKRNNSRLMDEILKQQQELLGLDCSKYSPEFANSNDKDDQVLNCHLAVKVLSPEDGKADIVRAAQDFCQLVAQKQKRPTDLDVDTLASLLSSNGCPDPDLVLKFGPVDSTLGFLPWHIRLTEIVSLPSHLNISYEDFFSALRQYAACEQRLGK
UniProt P61970, whole entry, looked up: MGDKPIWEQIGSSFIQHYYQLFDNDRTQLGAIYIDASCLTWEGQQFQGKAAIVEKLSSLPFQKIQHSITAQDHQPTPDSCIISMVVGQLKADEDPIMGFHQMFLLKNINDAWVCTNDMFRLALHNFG
UniProt Q7Z417: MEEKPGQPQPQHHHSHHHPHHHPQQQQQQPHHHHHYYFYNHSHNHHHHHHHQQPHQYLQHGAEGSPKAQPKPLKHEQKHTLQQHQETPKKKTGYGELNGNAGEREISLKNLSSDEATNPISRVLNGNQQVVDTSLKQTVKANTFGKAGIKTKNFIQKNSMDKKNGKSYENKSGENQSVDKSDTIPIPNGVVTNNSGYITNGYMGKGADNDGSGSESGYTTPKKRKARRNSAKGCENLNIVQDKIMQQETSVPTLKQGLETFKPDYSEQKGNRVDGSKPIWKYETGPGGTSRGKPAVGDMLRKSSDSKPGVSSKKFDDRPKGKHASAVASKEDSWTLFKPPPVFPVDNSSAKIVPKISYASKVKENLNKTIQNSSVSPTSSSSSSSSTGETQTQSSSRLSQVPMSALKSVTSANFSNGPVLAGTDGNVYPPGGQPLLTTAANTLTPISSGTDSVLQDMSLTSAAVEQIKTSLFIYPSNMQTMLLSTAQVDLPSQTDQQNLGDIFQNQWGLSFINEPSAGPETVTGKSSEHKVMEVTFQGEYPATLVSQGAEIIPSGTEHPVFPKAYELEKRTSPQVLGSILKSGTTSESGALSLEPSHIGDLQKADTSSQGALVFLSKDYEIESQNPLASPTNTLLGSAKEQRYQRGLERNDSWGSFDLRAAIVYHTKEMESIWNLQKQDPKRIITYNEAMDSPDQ
UniProt Q9NX40: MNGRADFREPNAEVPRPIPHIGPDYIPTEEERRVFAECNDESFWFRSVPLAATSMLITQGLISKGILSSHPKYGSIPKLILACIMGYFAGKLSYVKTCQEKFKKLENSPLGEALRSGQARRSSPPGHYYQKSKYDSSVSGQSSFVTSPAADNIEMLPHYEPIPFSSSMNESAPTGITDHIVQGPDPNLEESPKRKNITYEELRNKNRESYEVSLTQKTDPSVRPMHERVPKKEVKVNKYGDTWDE
UniProt Q9NZJ9: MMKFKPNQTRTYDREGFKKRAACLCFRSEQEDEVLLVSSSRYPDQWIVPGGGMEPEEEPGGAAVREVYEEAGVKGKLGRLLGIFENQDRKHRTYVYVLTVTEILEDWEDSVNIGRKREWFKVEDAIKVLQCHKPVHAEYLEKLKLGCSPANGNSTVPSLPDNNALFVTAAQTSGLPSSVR
UniProt P53384: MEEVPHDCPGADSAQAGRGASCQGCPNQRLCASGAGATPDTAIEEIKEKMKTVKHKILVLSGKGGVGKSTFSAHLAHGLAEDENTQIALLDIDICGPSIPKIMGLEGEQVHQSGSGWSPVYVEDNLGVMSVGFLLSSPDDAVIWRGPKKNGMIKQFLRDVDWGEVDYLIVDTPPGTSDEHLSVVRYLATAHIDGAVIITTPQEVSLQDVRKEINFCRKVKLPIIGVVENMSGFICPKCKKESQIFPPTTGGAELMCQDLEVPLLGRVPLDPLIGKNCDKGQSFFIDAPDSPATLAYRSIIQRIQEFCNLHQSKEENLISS
UniProt Q92882: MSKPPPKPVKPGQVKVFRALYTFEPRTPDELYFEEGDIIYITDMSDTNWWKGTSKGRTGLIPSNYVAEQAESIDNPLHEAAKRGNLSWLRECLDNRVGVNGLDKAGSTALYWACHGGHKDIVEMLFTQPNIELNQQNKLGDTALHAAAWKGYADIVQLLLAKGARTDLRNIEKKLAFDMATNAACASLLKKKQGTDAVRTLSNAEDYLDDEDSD
UniProt Q8NFH3: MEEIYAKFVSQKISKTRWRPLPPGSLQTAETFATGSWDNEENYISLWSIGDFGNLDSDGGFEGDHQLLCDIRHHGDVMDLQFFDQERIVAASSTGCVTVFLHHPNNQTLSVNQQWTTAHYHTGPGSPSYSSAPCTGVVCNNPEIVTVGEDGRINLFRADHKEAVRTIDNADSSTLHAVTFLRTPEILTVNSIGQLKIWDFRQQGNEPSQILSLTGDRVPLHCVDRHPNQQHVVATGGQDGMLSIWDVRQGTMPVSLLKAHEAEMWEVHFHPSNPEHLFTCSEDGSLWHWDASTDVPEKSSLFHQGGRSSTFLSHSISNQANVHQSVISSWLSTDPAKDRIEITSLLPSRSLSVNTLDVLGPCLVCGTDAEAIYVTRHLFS
UniProt Q9Y266: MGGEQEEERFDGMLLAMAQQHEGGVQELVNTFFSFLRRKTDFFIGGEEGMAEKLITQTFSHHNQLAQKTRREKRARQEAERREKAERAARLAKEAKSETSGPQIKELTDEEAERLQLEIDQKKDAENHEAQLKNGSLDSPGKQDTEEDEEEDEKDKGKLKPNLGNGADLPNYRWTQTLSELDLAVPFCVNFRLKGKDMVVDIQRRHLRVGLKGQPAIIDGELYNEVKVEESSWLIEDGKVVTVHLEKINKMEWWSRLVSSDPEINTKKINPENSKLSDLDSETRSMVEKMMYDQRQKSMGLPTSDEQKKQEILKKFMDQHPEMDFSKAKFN
UniProt Q9NV35: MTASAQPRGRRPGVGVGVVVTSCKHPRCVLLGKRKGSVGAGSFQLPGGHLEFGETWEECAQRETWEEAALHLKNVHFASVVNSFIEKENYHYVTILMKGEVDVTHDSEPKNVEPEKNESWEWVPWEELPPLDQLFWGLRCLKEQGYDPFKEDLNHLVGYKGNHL
UniProt Q9H8K7: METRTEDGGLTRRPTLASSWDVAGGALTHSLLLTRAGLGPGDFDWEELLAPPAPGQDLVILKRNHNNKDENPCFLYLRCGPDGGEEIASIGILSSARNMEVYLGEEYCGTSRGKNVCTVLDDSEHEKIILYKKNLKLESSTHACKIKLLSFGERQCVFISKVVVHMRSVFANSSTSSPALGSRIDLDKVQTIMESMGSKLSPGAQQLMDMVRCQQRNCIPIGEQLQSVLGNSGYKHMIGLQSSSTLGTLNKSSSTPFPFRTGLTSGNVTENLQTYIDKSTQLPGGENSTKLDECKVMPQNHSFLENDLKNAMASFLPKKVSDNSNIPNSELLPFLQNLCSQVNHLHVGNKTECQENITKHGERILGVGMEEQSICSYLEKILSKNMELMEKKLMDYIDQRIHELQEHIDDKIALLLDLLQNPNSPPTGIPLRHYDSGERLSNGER
UniProt Q9NTK5, whole entry, looked up: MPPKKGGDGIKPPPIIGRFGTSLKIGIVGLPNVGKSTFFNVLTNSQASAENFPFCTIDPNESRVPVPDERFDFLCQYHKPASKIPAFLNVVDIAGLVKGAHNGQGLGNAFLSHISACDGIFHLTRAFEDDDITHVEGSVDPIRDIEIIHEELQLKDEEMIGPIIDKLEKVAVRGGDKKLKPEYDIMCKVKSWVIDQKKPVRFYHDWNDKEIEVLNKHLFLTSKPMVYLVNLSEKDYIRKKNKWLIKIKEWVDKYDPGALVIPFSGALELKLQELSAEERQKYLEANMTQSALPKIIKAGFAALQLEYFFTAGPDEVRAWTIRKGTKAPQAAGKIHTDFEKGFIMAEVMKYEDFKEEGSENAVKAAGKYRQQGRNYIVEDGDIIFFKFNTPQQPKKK
UniProt Q8TB37: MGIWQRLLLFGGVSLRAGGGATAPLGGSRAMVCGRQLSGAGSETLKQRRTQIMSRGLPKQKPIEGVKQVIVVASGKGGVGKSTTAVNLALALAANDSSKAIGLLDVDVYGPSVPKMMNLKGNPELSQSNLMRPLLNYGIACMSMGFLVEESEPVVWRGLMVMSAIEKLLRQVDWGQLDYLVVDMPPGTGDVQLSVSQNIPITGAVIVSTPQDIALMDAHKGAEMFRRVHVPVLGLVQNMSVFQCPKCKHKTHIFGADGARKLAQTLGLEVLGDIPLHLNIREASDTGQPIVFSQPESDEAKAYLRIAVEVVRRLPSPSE
UniProt Q01968: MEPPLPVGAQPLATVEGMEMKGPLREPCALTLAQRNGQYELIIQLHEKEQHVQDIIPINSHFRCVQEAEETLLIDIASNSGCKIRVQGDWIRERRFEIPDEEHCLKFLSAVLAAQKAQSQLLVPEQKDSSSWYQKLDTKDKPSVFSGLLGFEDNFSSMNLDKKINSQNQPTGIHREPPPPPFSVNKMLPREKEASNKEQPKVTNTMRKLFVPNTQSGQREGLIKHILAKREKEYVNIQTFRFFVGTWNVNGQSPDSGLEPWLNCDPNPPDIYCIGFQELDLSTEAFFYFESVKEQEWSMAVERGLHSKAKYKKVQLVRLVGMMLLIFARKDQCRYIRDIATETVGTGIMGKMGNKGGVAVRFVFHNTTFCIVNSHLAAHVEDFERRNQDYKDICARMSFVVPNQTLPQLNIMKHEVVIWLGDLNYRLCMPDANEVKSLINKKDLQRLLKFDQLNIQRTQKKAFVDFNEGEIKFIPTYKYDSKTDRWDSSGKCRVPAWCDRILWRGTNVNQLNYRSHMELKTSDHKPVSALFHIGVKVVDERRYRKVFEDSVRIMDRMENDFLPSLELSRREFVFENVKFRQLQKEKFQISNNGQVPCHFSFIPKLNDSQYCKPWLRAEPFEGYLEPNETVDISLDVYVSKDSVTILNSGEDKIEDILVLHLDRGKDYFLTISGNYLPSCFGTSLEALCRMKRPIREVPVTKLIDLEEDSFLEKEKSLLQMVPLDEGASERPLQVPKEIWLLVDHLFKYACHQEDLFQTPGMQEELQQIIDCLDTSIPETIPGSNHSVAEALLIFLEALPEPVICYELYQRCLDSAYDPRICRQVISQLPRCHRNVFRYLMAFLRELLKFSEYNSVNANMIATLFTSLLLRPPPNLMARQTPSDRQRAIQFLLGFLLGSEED
UniProt O60502: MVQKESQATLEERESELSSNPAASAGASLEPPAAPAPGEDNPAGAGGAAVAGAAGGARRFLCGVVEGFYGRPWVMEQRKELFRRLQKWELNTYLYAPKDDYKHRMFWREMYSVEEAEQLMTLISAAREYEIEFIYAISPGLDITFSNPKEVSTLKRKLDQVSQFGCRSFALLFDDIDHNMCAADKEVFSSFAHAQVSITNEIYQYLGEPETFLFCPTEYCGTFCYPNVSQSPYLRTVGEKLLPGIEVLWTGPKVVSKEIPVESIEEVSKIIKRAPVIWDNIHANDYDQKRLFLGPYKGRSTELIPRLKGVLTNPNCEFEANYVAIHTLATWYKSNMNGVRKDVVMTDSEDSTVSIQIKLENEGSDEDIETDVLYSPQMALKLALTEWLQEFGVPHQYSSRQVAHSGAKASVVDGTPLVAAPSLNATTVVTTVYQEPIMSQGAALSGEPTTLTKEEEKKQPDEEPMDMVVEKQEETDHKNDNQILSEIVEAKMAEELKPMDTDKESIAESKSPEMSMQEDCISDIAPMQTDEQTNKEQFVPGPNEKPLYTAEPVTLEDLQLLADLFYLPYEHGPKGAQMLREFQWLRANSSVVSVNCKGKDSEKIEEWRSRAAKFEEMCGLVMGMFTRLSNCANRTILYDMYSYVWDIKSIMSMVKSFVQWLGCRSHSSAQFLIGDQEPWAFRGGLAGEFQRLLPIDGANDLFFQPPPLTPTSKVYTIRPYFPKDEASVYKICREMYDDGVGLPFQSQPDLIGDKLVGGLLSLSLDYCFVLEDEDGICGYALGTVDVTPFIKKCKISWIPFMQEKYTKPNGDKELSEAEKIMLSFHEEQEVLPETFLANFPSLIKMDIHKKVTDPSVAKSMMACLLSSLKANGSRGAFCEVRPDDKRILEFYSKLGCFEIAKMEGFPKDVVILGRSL
UniProt Q96G74: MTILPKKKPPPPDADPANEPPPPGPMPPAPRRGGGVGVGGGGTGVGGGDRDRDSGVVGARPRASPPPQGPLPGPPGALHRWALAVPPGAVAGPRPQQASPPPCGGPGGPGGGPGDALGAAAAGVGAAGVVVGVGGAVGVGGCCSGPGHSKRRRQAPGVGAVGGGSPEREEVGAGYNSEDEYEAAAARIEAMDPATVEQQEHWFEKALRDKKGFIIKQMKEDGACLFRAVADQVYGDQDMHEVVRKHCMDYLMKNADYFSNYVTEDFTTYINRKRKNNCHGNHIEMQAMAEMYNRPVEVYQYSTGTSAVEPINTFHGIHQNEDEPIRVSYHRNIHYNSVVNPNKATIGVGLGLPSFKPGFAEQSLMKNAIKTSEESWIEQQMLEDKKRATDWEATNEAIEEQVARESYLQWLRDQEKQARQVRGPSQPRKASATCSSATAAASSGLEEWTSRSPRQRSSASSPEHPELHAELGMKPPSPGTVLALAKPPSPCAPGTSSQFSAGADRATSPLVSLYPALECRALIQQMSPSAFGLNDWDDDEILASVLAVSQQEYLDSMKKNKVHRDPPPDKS

How the values were obtained:
Assay in all cases: log2 fold change, soluble protein after heating vs DMSO (PISA); higher = thermal stabilisation; K562 cells, 10 uM, 30 min; active = over 0.2 and 3.5 SD of the protein, either way, in both replicates (recomputed)
[1] = compound: CC[C@@H]1C(=O)N(C)c2cnc(Nc3ccc(C(=O)NC4CCN(C)CC4)cc3OC)nc2N1C1CCCC1
Method in brief: (§1)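 Quantification of soluble protein used TMTpro 16plex LC-MS/MS, with channel sums equalised. Samples were the supernatant after 21,000xg for 90 min of pooled aliquots from K562 cells (2×10^6 cells/mL) treated with 10 μM compound for 30 min, heated for 3 min over 48°C-58°C, and extracted in PBS with 0.5% NP-40 at 4°C. Values, from duplicates, describe thermal stability against control samples on a log2 fold-change scale.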

[2] = compound: CC[C@@H]1C(=O)N(C)c2cnc(Nc3ccc(C(=O)N[C@H]4CC[C@H](N5CCN(CC6CC6)CC5)CC4)cc3OC)nc2N1C(C)C [volasertib]
Method in brief: as §1

[3] = compound: CC[C@H](C)N1C=C(C2=C(C=C(C=C21)C3=CN=C(C=C3)N4CCNCC4)C(=O)NCC5=C(C=C(NC5=O)C)C)C
Method in brief: as §1

[4] = compound: CC[C@H](C)[C@@H](C(=O)N[C@@H]([C@@H](C)O)C(=O)N[C@@H](CC(C)C)C(=O)[C@]1(CO1)C)NC(=O)[C@H]([C@@H](C)CC)N(C)C(=O)C [epoxomicin]
Method in brief: as §1

[5] = compound: CCn1c(C(=O)N(C2CC2)C2CC2)cc2c3c(ncn3C)c(Nc3cc(C)n(C)n3)nc21
Method in brief: as §1

[6] = compound: CCn1cc(-c2ccnc3[nH]c(-c4cccc(CN(C)C)c4)cc23)c(-c2ccc(NC(=O)N(C)C)cc2)n1
Method in brief: as §1

[7] = compound: CN(C)CC(=O)Nc1ccc2[nH]c(=O)c3ccccc3c2c1
Method in brief: as §1

[8] = compound: CN(CCOC1=CC=C(C=C1)C[C@H]2C(=O)NC(=O)S2)C3=CC=CC=N3 (racemic) [rosiglitazone]
Method in brief: as §1

[9] = compound: CN1C2=C(C3=C1C(=O)N(N=C3)CC4=CC(=CC=C4)N)SC(=C2)S(=O)C
Method in brief: as §1

[10] = compound: CN1CCC(CNc2ccc3ncc(-c4cccc(OC(F)(F)F)c4)n3n2)CC1
Method in brief: as §1

Measured: log2 fold change

NUS1 (UniProt Q96E22)
inactive: [1] 0.026 | [2] 0.01 | [3] -0.006 | [4] 0.05 | [5] 0.01 | [6] -0.037 | [7] -0.037 | [8] -0.023 | [9] -0.025 | [10] 0.066

NUTF2 (UniProt P61970)
inactive: [1] 0.006 | [2] -0.041 | [3] 0.016 | [4] 0.028 | [5] -0.067 | [6] -0.117 | [7] 0.196 | [8] -0.006 | [9] -0.035 | [10] 0.052

OPLAH (UniProt O14841)
inactive: [1] -0.002 | [2] -0.025 | [3] 0.017 | [4] 0.007 | [5] -0.01 | [6] -0.071 | [7] 0.006 | [8] 0.03 | [9] -0.044 | [10] -0.009

NT5C2 (UniProt P49902)
inactive: [1] 0.016 | [2] -0.033 | [3] 0.015 | [4] 0.007 | [5] 0.013 | [6] -0.018 | [7] 0.025 | [8] 0.014 | [9] -0.044 | [10] -0.014

NUFIP2 (UniProt Q7Z417)
inactive: [1] 0.066 | [2] 0.075 | [3] -0.001 | [4] -0.076 | [5] 0.008 | [6] 0.067 | [7] -0.046 | [8] -0.074 | [9] 0.137 | [10] 0.114

NUP54 (UniProt Q7Z3B4)
inactive: [1] 0.003 | [2] -0.027 | [3] 0.034 | [4] 0.026 | [5] -0.105 | [6] -0.104 | [7] 0.089 | [8] 0.061 | [9] 0.011 | [10] -0.122

OCIAD1 (UniProt Q9NX40)
inactive: [1] 0.001 | [2] 0.049 | [3] -0.013 | [4] -0.013 | [5] 0.018 | [6] 0.006 | [7] -0.019 | [8] 0.007 | [9] -0.047 | [10] -0.099

OGT (UniProt O15294)
inactive: [1] -0.075 | [2] -0.075 | [3] 0.019 | [4] 0.024 | [5] -0.069 | [6] -0.12 | [7] 0.057 | [8] 0.005 | [9] 0.04 | [10] 0.104

NUDT4 (UniProt Q9NZJ9)
inactive: [1] -0.121 | [2] -0.181 | [3] 0.023 | [4] 0.04 | [5] 0.006 | [6] -0.001 | [7] 0.01 | [8] 0.061 | [9] -0.071 | [10] -0.184

NUBP1 (UniProt P53384)
inactive: [1] 0.001 | [2] -0.013 | [3] 0.019 | [4] 0.019 | [5] 0.022 | [6] -0.019 | [7] 0.043 | [8] 0.061 | [9] -0.051 | [10] -0.116

OSTF1 (UniProt Q92882)
inactive: [1] -0.182 | [2] -0.072 | [3] -0.062 | [4] 0.055 | [5] -0.059 | [6] -0.093 | [7] 0.07 | [8] 0.002 | [9] 0.008 | [10] -0.056

NT5DC3 (UniProt Q86UY8)
inactive: [1] 0.003 | [2] -0.009 | [3] 0.015 | [4] 0.053 | [5] 0.021 | [6] 0.1 | [7] 0.002 | [8] 0.015 | [9] -0.057 | [10] -0.038

NUP88 (UniProt Q99567)
inactive: [1] -0.107 | [2] -0.416 | [3] 0.053 | [4] -0.069 | [5] -0.033 | [6] -0.004 | [7] 0.011 | [8] 0.044 | [9] 0.152 | [10] 0.001

NUP43 (UniProt Q8NFH3)
inactive: [1] 0.003 | [2] -0.061 | [3] 0.01 | [4] 0.028 | [5] -0.041 | [6] -0.032 | [7] -0.02 | [8] 0.03 | [9] -0.027 | [10] 0.001

NTPCR (UniProt Q9BSD7)
inactive: [1] -0.053 | [2] 0.076 | [3] -0.003 | [4] 0.061 | [5] 0.024 | [6] -0.182 | [7] 0.026 | [8] 0.051 | [9] -0.024 | [10] -0.125

NUP62 (UniProt P37198)
inactive: [1] -0.064 | [2] -0.137 | [3] 0.041 | [4] 0.011 | [5] -0.046 | [6] 0.002 | [7] 0.027 | [8] 0.055 | [9] 0.028 | [10] -0.093

NUDC (UniProt Q9Y266)
inactive: [1] -0.074 | [2] 0.031 | [3] 0.047 | [4] 0.023 | [5] -0.001 | [6] -0.076 | [7] -0.026 | [8] 0.045 | [9] -0.052 | [10] -0.056

NUP58 (UniProt Q9BVL2)
inactive: [1] 0.046 | [2] -0.031 | [3] -0.012 | [4] 0.028 | [5] -0.036 | [6] -0.036 | [7] -0.011 | [8] 0.006 | [9] 0.028 | [10] 0

NUDT15 (UniProt Q9NV35)
inactive: [1] 0.002 | [2] -0.088 | [3] -0.006 | [4] 0.067 | [5] -0.021 | [6] 0.14 | [7] 0.064 | [8] 0.068 | [9] -0.082 | [10] 0.354

OSBPL9 (UniProt Q96SU4)
inactive: [1] -0.087 | [2] 0.121 | [3] -0.029 | [4] -0.039 | [5] 0.5 | [6] 0.035 | [7] 0.153 | [8] 0.111 | [9] 0.118 | [10] 0.127

NT5C3A (UniProt Q9H0P0)
inactive: [1] 0.018 | [2] 0.03 | [3] -0.022 | [4] 0.059 | [5] -0.054 | [6] -0.039 | [7] 0.175 | [8] 0.061 | [9] 0.149 | [10] -0.053

PAAT (UniProt Q9H8K7)
inactive: [1] 0.348 | [2] -0.033 | [3] -0.199 | [4] 0 | [5] 0.04 | [6] -0.027 | [7] -0.052 | [8] 0.073 | [9] -0.054 | [10] 0.003

OLA1 (UniProt Q9NTK5)
inactive: [1] -0.041 | [2] -0.091 | [3] 0.047 | [4] 0.046 | [5] 0.012 | [6] -0.031 | [7] -0.031 | [8] 0.024 | [9] -0.052 | [10] -0.02

NUP153 (UniProt P49790)
inactive: [1] -0.03 | [2] -0.086 | [3] -0.019 | [4] -0.007 | [5] 0.043 | [6] 0.002 | [7] -0.028 | [8] -0.021 | [9] 0.042 | [10] 0.024

NUBPL (UniProt Q8TB37)
inactive: [1] 0.036 | [2] 0.01 | [3] 0.002 | [4] -0.058 | [5] -0.052 | [6] 0.02 | [7] -0.022 | [8] -0.006 | [9] -0.009 | [10] 0.082

Two entries drawn at random from those above:
PAAT (UniProt Q9H8K7)
inactive: [1] 0.348 | [2] -0.033 | [3] -0.199 | [4] 0 | [5] 0.04 | [6] -0.027 | [7] -0.052 | [8] 0.073 | [9] -0.054 | [10] 0.003

OLA1 (UniProt Q9NTK5)
inactive: [1] -0.041 | [2] -0.091 | [3] 0.047 | [4] 0.046 | [5] 0.012 | [6] -0.031 | [7] -0.031 | [8] 0.024 | [9] -0.052 | [10] -0.02

The list continues.

OCRL (UniProt Q01968)
inactive: [1] 0.142 | [2] 0.001 | [3] 0.113 | [4] -0.043 | [5] 0.024 | [6] 0.076 | [7] 0.009 | [8] 0.052 | [9] 0.039 | [10] -0.025

NUP35 (UniProt Q8NFH5)
inactive: [1] 0.063 | [2] 0.012 | [3] 0.015 | [4] 0.096 | [5] -0.024 | [6] -0.031 | [7] 0.023 | [8] 0.021 | [9] 0.035 | [10] -0.133

OGA (UniProt O60502)
inactive: [1] -0.032 | [2] -0.21 | [3] 0.01 | [4] 0.005 | [5] -0.005 | [6] -0.024 | [7] 0.004 | [8] 0.025 | [9] -0.058 | [10] 0.008

OTUD5 isoform 5 (UniProt Q96G74)
inactive: [1] 0.06 | [2] -0.159 | [3] 0.022 | [4] 0.06 | [5] 0.005 | [6] -0.044 | [7] 0.002 | [8] 0.056 | [9] -0.043 | [10] -0.05
